Source: PubChem BioAssay AID1347423 (Functional Genomics Laboratory (NCATS/FGL), 2020)
About 210 (0.4%) of roughly 52,000 sequences were called active.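 Rule for the calls: active = gene whose silencing raises cell survival under the drug, median off-target-corrected z-score across its silencing RNAs 2 or more; inactive = the rest.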 Some of the results follow.

experiment: Resistance to Poly (ADP-Ribose) Polymerase inhibitor: Gene Identification via Genome-wide siRNA Screen; settings: mouse BRCA2 R2336H ES cells, olaparib, CellTiter-Glo viability; stronger effect = higher value
How it was run: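 Mouse BRCA2 R2336H ES cells were reverse-transfected with siRNA (20 nM final), treated at 48 h with 500 nM olaparib, and read by CellTiter-Glo after 72 h. Scores: MAD-based z per siRNA, median per gene, seed off-target correction.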

Sequence	z-score
GGUCAUGUACAAGAAAACCTT against AY100450	inactive: 0.95
CCGAAGUGGAAUAAAUUGUTT against 4931433A13Rik	inactive: -0.0409
GGAAACCUAUGAGAAUAUCTT against Kpnb3	inactive: 0.202
GGCAGACAAGGAUUCCUUGTT against Mrpl38	inactive: 0.971
GGGCAAAUUCUCAAGAAAATT against 4933431N12Rik	inactive: -0.331
GGACUUACCUUUAACCAACTT against Slc30a4	inactive: -0.219
GGCAUAUUCUUUUCAACACTT against 1110067L22Rik	inactive: -0.537
GGAAACAGCAUCAUCAUGUTT against Snrpg	inactive: -2.11
GGGAUGCUCUGAACAUUGATT against Anxa2	inactive: 0.826
GUCCUCUUCUGGUUCUCAGTT against V1ra7	inactive: 2.8
GGACAACCAAAAUGCAUUUTT against Zic3	inactive: -1.04
UGUCUGGAUGUCUAGGUGATT against MGC65558	inactive: -0.603
GCCGUCAGACAAGGAGGAATT against Baiap1	inactive: 0.647
GGAAAUGUUGAAUCUUGCUTT against A930031D07Rik	inactive: 0.774
GCCAACUGAAGAUCCGUGUTT against Pgm5	inactive: -0.481
GGUGGUUGUAAGUAAGCUGTT against Lgals3	inactive: -2.21
GGGAAGACAACAAUUCUAUTT against Arf1	inactive: 0.522
GGAGUUCUGCAUCUACAACTT against Syngr1	inactive: 0.549
GAUAACCAUGUUCUUUGGATT against Defcr-rs2	inactive: 0.451
GGGUGCUAAAUCUUUUUGATT against Ccnf	inactive: -0.453
GGGACUAGAUCAUUUUCUGTT against D630028G08Rik	inactive: 1.67
GGCAUUGGUUCCUACAAGATT against Gm773	inactive: 0.502
CCCUGUCACAACAUUCUCATT against Olfr1426	inactive: -0.363
GGAAUAUGUCACCAACAAGTT against Akap8l	inactive: 2.95
GGAGUUACAUGGCUCUUGATT against Gpr44	inactive: -0.555
GCUAUUUAGUUAGUUGUGUTT against Acbd3	inactive: 0.191

Pulled one by one from above, three records:
Sequence	z-score
GGAAUAUGUCACCAACAAGTT against Akap8l	inactive: 2.95
GGACUUACCUUUAACCAACTT against Slc30a4	inactive: -0.219
GGAAACCUAUGAGAAUAUCTT against Kpnb3	inactive: 0.202

(next part)

Sequence	z-score
GCCAACAAGUUUAUCACUATT against Hoxb13	inactive: -0.492
GGAGGAAAAGUCUUGUAGUTT against Armcx1	inactive: -0.548
GGAGAAUAUUCUCUGUGGATT against D6Ertd32e	inactive: -1.08
GCAUCCAUGCUAUGGAACCTT against LOC434768	inactive: 0.997
GGAAUACUUAUAGCUGACUTT against Rdhe2	inactive: 0.32
CUCACUUCCCUAUCCAGAGTT against BC026645	inactive: -1.3
GCUAAUUGUUCACUAAAGGTT against 1700029H14Rik	inactive: 0.0282
GAUGGACAAUCUCAUGGAUTT against Pcp2	inactive: 0.793
GGCGAUCAUAAACAGCAAUTT against Smyd3	inactive: 1.85
GCACAGCUAACGGAAAACATT against H2-Ke2	inactive: -0.0245
GUUGGCCAGAAUUCUGAAATT against Lzp-s	inactive: -0.145
CCAAGCAUUACAGAAACCATT against Olfr1148	inactive: -0.7
GGCUUGCCAUCGUAAAUCCTT against 1700019M22Rik	inactive: -0.469
GCAUUGUAAAGUUUGUACATT against Dnaja2	inactive: 0.571
GGCCGAAAAUUUGUUUGUATT against Pcdhga9	inactive: 1.18
CCCUGUGACUCCAAAAUGATT against Dbh	inactive: 0.352
GGGCAUAUUCACUUUAAAATT against 1200002N14Rik	inactive: -0.264
GGCCAGGAAAGAUUUCGAATT against Rab1	inactive: -1.3
CGGCAGAGCCAGAUAUGAUTT against Zfp98	inactive: -0.884
CCCUUUGAACUUUCCACACTT against A430060F13Rik	inactive: -0.202
GGGCCUUUAGUCCUCAAAGTT against 1810042K04Rik	inactive: 0.6
GGCUUCGUAGCUUUACAAATT against Abca6	inactive: 0.0706
GUAAUUCACAGCCUCUCCGTT against Pitx3	inactive: -0.548
GGUAUCUUCAAGUACAUGATT against BC011426	inactive: 0.138
CGCACACGAUGUGGAAAUGTT against Ptger1	inactive: 0.509
GGAGUUAAUCAAAGCUUUGTT against 2610304G08Rik	inactive: -0.906

Sequence	z-score
GCUUAACGAGCCUUAGAAATT against 4632412E09Rik	inactive: -1.48
GGGCAGUGAGAAGAGAUUCTT against H2-Q1	inactive: 0.166
CCAACAAUGUUUAAAGGAUTT against Olfr476	inactive: -0.279
GGCUUCUCUCUAUGUAUUCTT against Tas2r116	inactive: -0.22
CGGCAUCAUAUUGUGCGAATT against Cnn3	inactive: -0.119
GCAGAGGGCAACUCGUAAGTT against LOC547347	inactive: 1.92
CCUUGUCAAUCAUUAUCUGTT against Olfr923	inactive: 1.22
GCUCCAAUCGGUGAUGUCUTT against Pla2g7	inactive: -3.63
GGAUCCCUCAUUCGUCCCUTT against D430018E03Rik	inactive: -1.38
GGAUGUUUUAACUUGGAAATT against Sema5a	inactive: -0.0973
GGUCACUUUAGAUUUUGAATT against Stard13	inactive: -0.935
CGUGAUGUGGGAAAUGGCATT against Avpr2	inactive: 1.4
GGAGUUCUUCAUUUACCGATT against E330009P21Rik	inactive: -0.144
GGAAAAGGAAAGCUUUAGUTT against Fut4	inactive: 0.511
GGUGAUCCUCAUCAUCAGUTT against 2400010G15Rik	active: 2.76
CCGGCUGUACAAAGAGAAUTT against Rnf34	inactive: -0.365
GCCCAACCCGAUUUGCAGATT against Cyp4a10	inactive: -0.83
GGGUGGGUUUGAGGUGUCUTT against Set	inactive: 0.395
GGAACUUCGUCAUCAACAUTT against 1110025I09Rik	inactive: 0.662
CCCAGCACAAGUGUAAGAUTT against Fzd10	inactive: -0.626
GGCUUAAAAUAAAAGUGCCTT against Nans	inactive: -0.502
GCAGCUAGUCUUUUAGGUATT against Nasp	inactive: 0.759
CCUGGUAUGCCAAACUUGATT against Ppp2r4	inactive: 0.828
GGUUCUGGAAGUCUAAGAATT against Zmynd11	inactive: 1.63
GGCAAUACGUAACAUGCCATT against Slc6a4	inactive: 1.13
GGGUCAUUGCUUAGAAACATT against Tcta	inactive: -1.85

Sequence	z-score
GGUGAAAUACGAUUAUGAUTT against Galnt12	inactive: 0.806
GGACAAGGCCACUUAAAUCTT against Hoxc8	inactive: -0.314
CCCAUAAUCUCCGAUAUCATT against Hsf1	inactive: 1.28
GGGCAUCCUAUACAAGAAGTT against B230113C15Rik	inactive: 1.39
GGCUCACAUCUCCUUACAUTT against Klrg1	inactive: -0.024
GCUGAAAAACAAGACUUCGTT against Gabrg1	inactive: 0.431
GCACGUACCAGUAUCCAGATT against Dnase1l2	inactive: 0.813
GCAGCUAAUACAAACCUUATT against A630086M08Rik	inactive: -0.371
CCGGUUAUAGCGAACAUUUTT against 2900057D21Rik	inactive: -1.51
GGAGUCUGAAGAAUACUCUTT against 4732416F18	inactive: -1.16
GGAACCUACCUUUGACCCATT against Tbc1d17	inactive: 0.444
GGAUCUCUGGGAAAUCUGCTT against Tap2	inactive: 2.46
GGUUAUUCUUCUGGUGGUGTT against Olfr1234	inactive: -1.25
GGAGAUGACUCUUUCUGUATT against Olfr301	inactive: 0.833
GGCCACAGAGCCAAAGAUUTT against Cdca7	inactive: -1
CCGUGGAUACUGCAUGUGATT against Neud4	inactive: 0.458
CCACUGAGUUCUUUCUACUTT against Olfr49	inactive: -0.879
GCCUUUCCUAGACUAUUACTT against Dyt1	inactive: 0.577
GGGUUCAAUAACCACAUCATT against BC017545	inactive: 0.165
GGAACAAAUCGCUCUGUUGTT against Olfr1314	inactive: 0.647
GGCGCAACGAAUAAAAAUATT against D630023F18Rik	inactive: 0.559
CGAAAACAGUACGAUGCUUTT against Dnajb11	inactive: -0.663
GGCCUAUAUUGAUGAUUUUTT against 4930503L19Rik	inactive: 0.037
GGAUAAAUGGUACAUUCAGTT against 2010305A19Rik	inactive: -1.27
CCAGUGUUUGACUUGACCATT against Dpysl3	inactive: 0.23

An excerpt of these results, comma-delimited:
Sequence,z-score
GGGCAUCCUAUACAAGAAGTT against B230113C15Rik,inactive: 1.39
GGUUAUUCUUCUGGUGGUGTT against Olfr1234,inactive: -1.25
GGCCACAGAGCCAAAGAUUTT against Cdca7,inactive: -1
GGCGCAACGAAUAAAAAUATT against D630023F18Rik,inactive: 0.559

Single values from the results shown:
z-score with CCGUGGAUACUGCAUGUGATT against Neud4 is entered as inactive: 0.458
z-score with CCCAUAAUCUCCGAUAUCATT against Hsf1 is entered as inactive: 1.28
